This experiment addresses Mu-type opioid receptor (Homo sapiens, UniProt P35372). The experiment is described as follows: Agonist activity at human cloned mu opioid receptor by [35S]GTPgammaS binding assay. The format is functional. (In general: GTPγS is a poorly hydrolysed GTP analogue; its binding reports G protein activation.)

The chains behind the UniProt entries cited, without tags or fusion partners.
UniProt P35372, whole entry: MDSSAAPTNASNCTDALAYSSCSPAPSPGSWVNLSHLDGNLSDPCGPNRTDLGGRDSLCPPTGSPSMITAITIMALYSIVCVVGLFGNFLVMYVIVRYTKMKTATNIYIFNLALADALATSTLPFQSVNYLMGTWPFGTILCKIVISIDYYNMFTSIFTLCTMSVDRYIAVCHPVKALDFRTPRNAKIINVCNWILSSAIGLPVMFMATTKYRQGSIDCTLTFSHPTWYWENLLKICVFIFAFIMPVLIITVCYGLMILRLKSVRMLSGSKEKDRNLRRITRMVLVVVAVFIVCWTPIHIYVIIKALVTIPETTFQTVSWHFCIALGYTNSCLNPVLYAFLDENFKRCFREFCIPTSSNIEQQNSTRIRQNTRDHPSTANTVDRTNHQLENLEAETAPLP

Turning to `C[C@@]12CCCCC[C@@H](Cc3ccc(O)cc31)[C@@H]2N` [DEZOCINE], the EC50 (as a rule, the concentration needed to bring the measured effect to its halfway point) came out at 38 nM.

The record behind these values is ChEMBL document CHEMBL1152717, “Discovery of mu-opioid selective ligands derived from 1-aminotetralin scaffolds made via metal-catalyzed ring-opening reactions” (Bioorg Med Chem Lett, 2009).
